Measured values as given in article doi:10.1101/2024.02.14.580406.
Read-outs that look alike come from different tables or passages of the source. Results are given in words; binding and its absence hold for the method and conditions named. Binding seen in cells or lysates may run through a third protein. Some results given as binding are weak or reduced against the parent protein; the word gives no strength. For part of these data: Where a sequence is shown, tags or fusion partners need not be part of it.

The chains behind the UniProt entries cited, without tags or fusion partners. Where a name states a change or a piece, a line headed by the entry shows the natural chain unless it says otherwise.
UniProt Q9H792: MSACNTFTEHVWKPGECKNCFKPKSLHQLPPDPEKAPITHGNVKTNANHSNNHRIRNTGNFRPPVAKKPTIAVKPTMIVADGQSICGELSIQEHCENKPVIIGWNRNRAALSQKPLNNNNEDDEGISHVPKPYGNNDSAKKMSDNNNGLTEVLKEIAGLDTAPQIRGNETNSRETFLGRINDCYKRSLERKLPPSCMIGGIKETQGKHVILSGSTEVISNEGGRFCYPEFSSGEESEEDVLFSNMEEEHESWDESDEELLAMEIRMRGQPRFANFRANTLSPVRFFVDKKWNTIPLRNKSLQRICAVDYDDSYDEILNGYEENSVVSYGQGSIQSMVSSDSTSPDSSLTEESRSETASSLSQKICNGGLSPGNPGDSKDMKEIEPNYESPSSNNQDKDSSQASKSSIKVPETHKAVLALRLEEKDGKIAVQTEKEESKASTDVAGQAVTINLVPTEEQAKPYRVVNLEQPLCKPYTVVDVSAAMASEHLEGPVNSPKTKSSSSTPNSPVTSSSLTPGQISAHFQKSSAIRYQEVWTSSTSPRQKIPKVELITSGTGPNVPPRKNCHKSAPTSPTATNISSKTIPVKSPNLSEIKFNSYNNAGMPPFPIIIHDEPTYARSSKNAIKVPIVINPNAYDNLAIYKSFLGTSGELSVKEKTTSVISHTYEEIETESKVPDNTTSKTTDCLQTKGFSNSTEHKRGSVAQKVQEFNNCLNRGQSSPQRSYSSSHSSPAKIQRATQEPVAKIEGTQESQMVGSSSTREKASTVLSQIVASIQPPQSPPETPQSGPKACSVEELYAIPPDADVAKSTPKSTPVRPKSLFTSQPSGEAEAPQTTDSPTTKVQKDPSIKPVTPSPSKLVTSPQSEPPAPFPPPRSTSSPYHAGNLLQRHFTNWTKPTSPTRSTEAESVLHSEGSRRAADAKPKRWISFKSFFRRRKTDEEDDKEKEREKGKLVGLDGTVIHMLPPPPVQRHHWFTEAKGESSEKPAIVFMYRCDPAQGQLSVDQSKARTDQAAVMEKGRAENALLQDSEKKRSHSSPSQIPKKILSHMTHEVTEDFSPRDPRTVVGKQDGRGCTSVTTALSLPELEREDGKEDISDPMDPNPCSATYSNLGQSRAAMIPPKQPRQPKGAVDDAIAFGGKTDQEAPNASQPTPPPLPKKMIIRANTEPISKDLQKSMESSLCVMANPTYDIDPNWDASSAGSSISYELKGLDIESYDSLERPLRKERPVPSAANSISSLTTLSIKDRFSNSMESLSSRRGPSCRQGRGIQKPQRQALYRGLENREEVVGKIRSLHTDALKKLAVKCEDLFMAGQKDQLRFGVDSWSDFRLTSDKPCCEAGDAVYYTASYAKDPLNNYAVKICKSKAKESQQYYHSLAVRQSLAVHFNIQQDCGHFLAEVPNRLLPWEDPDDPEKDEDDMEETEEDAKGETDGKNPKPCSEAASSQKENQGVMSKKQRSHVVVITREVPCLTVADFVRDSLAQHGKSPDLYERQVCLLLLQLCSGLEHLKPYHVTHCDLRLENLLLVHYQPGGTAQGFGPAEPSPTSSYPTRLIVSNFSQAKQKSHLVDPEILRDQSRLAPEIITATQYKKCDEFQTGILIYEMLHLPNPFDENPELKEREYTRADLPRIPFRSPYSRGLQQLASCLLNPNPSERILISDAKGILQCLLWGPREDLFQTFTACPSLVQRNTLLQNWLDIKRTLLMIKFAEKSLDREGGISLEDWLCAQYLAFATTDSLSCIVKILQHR
UniProt P46109: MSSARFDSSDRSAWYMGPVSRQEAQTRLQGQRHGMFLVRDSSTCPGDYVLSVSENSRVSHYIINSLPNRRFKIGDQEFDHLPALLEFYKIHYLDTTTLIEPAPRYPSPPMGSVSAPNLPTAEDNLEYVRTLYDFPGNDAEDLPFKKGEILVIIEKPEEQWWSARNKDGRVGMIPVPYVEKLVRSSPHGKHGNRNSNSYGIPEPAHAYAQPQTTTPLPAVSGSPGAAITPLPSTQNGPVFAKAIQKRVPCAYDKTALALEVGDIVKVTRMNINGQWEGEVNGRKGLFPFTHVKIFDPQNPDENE
UniProt P62993: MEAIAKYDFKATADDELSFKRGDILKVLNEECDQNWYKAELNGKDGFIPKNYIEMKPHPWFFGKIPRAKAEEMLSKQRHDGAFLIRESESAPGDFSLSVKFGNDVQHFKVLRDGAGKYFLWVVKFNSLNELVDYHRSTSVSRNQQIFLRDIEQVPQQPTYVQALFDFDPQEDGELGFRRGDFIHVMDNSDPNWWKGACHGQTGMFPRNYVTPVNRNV
UniProt Q13557: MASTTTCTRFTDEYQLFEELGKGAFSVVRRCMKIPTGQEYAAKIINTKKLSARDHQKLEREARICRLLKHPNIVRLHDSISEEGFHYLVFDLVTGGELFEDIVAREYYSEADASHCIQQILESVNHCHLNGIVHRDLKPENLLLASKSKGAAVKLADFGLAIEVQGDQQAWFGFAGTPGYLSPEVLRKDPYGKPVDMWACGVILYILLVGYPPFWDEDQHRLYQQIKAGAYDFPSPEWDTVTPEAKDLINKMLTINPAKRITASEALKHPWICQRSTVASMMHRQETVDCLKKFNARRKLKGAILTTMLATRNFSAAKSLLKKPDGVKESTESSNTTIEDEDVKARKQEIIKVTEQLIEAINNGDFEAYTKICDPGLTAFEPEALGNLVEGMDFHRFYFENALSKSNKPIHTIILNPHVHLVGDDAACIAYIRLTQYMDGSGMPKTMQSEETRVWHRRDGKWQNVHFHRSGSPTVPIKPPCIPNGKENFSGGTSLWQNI
UniProt Q13555: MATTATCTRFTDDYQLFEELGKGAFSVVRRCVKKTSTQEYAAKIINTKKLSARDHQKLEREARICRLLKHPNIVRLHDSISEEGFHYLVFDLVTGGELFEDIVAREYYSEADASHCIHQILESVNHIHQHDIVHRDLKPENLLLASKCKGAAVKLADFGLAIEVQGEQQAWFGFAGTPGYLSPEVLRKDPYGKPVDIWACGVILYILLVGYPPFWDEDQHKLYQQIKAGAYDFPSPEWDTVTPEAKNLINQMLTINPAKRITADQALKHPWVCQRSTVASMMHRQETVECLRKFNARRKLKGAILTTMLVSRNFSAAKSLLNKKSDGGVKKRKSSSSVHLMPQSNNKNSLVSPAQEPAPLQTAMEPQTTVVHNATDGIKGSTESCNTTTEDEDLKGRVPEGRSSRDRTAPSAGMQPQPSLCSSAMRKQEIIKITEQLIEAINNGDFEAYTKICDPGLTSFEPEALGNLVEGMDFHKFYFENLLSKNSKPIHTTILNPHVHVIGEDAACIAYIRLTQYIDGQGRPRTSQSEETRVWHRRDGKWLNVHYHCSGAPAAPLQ

Key:
[1] = biological target: Flag-tagged PEAK1 R297A/L301A/R303A (human) (UniProt Q9H792); experiment: co-IP
[2] = biological target: Flag-tagged PEAK1 R297E/R303E (human) (UniProt Q9H792); experiment: co-IP
[3] = biological target: Flag-tagged PEAK1, wildtype (human) (UniProt Q9H792); experiment: co-IP
[4] = biological target: V1- or V2-labeled fusion of PEAK1 (human) (UniProt Q9H792); experiment: split reporter
[5] = biological target: T1, V1- or V2-labeled fusion of PEAK2 (UniProt Q86YV5); experiment: split reporter
T1 sequence: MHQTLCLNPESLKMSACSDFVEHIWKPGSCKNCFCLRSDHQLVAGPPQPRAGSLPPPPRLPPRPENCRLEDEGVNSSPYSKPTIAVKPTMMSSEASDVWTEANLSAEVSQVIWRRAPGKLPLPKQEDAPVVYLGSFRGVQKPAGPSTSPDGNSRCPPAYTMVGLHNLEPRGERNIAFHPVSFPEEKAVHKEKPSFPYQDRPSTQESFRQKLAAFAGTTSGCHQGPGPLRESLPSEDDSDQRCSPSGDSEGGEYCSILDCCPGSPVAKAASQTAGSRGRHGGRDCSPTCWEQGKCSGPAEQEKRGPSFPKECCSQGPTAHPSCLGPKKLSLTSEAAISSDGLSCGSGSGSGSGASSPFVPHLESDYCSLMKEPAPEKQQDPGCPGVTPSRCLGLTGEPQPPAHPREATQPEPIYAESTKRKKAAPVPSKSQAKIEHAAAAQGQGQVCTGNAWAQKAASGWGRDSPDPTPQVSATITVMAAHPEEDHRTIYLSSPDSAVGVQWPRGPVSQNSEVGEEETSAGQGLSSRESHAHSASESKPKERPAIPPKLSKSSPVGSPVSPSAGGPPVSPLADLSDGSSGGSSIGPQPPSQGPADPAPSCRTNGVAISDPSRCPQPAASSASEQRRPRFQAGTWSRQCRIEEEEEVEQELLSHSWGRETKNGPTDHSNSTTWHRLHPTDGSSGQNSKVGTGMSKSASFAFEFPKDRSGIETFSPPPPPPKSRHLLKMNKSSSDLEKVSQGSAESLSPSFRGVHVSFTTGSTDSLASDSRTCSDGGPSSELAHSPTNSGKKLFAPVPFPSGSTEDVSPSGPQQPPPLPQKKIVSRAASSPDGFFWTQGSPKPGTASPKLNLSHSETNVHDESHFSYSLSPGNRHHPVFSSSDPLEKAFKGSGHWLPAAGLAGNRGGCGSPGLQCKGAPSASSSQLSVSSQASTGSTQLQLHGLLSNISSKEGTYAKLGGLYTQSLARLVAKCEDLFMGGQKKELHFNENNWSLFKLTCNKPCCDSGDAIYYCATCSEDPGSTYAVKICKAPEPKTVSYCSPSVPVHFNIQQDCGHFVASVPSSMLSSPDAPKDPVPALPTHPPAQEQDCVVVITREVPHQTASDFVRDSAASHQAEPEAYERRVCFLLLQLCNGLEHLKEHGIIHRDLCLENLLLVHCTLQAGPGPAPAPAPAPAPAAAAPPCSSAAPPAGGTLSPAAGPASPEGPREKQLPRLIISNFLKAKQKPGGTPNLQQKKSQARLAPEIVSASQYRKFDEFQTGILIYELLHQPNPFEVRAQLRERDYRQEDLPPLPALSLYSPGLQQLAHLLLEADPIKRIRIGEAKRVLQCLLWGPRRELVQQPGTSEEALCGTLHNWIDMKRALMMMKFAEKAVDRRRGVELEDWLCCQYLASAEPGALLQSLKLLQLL

[6] = biological target: T2, PEAK2, wildtype (N-terminal HA-tagged and C-terminal FLAG-tagged) (UniProt Q86YV5); experiment: co-IP
T2 sequence: T1 sequence

[7] = biological target: endogenous PEAK1 (human (endogenous in MDA-MB-231)) (UniProt Q9H792); experiment: proximity ligation
[8] = biological target: T3, endogenous PEAK2 (human (endogenous in MDA-MB-231)) (UniProt Q86YV5); experiment: proximity ligation
T3 sequence: T1 sequence

[9] = biological target: Flag-tagged PEAK1, wildtype (human) (UniProt Q9H792); experiment: co-IP; remark: listed apart in the source

## Crk-L (from UniProt P46109 1-303)
[1]
  binding: binds
[2]
  binding: binds
[3]
  binding: binds

## Grb2 (from UniProt P62993 1-217)
[1]
  binding: binds
[2]
  binding: binds
[3]
  binding: binds

## V1- or V2-labeled fusion of PEAK1 (from UniProt Q9H792 1-1746)
[4]
  binding: binds
[5]
  binding: binds

## calcium/calmodulin-dependent protein kinase 2 (CAMK2)D (from UniProt Q13557 1-499) (enzyme)
[6]
  binding: binds
[7]
  binding: binds
[8]
  binding: binds

## calcium/calmodulin-dependent protein kinase 2 (CAMK2)G (from UniProt Q13555 1-558) (enzyme)
[7]
  binding: binds
[8]
  binding: binds

B1: V1- or V2-labeled fusion of PEAK2 (protein, UniProt Q86YV5 1-1406)
chain: T1 sequence
[5]
  binding: binds

B2: endogenous PEAK2 (protein, UniProt Q86YV5 1-1406)
chain: T1 sequence
[9]
  binding: binds
